In US20070224124A1 (UNIVERSITY OF SOUTH FLORIDA, published 2007):
No constants are given. Whether binding was seen depends on the method and setting. For part of these data: Binding seen in cells or lysates may run through a third protein. Some results given as binding are weak or reduced against the parent protein; the word gives no strength.

Amino acid sequences for entries named in this document (tags omitted).
UniProt Q60631: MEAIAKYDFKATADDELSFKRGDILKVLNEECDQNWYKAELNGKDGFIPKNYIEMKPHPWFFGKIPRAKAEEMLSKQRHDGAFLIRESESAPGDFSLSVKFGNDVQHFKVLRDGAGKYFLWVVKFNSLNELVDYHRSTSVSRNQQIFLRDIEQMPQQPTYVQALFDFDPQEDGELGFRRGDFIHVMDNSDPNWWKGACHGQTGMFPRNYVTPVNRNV

Tests used:
[1] = biological target: T1, s-SHIP (stem-SHIP; SH2-lacking isoform of SH2-containing inositol 5'-phosphatase, approximately 104 kd) (mouse) (UniProt Q9ES52); test: reciprocal co-immunoprecipitation from ES cell lysate, immunoblot with P2C6
T1 sequence (looked up): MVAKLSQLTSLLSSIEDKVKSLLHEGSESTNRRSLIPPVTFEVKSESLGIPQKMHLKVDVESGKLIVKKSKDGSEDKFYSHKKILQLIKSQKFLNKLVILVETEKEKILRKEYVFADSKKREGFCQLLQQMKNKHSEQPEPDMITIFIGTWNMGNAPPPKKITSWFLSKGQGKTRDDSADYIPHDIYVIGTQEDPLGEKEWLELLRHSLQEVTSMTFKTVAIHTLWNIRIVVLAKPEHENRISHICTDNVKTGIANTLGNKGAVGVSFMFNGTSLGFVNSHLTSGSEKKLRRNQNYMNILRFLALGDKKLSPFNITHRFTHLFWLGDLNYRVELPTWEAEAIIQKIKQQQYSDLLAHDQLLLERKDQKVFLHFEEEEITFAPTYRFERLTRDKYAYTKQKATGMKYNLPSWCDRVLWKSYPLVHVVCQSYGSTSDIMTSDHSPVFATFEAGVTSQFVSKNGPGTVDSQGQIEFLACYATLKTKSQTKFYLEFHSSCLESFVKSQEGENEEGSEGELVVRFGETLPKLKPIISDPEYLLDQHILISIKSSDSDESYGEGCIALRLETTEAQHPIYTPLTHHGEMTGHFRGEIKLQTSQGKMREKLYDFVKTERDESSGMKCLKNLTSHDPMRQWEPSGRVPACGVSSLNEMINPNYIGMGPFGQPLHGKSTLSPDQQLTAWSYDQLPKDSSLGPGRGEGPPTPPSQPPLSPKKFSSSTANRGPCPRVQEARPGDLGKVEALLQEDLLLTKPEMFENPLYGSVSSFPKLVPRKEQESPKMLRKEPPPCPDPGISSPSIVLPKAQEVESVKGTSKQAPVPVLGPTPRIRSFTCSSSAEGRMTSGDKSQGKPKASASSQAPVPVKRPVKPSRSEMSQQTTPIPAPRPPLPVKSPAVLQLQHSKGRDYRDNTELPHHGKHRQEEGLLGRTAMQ

[2] = biological target: T1, s-SHIP (stem-SHIP; SH2-lacking isoform of SH2-containing inositol 5'-phosphatase, approximately 104 kd) (mouse); test: immunoprecipitation of ES-TL1 lysate with anti-Grb2 polyclonal antibody, immunoblot with P2C6 (FIG. 6C)
[3] = biological target: Grb2 adapter protein (not stated (endogenous in murine ES cells)) (UniProt Q60631); test: co-immunoprecipitation from ES cell lysate
[4] = biological target: Grb2 adapter protein (not stated (endogenous in murine ES cells)) (UniProt Q60631); test: co-immunoprecipitation from ES cell lysate (FIG. 6)
[5] = biological target: Grb2 adapter protein (not stated (endogenous in murine ES cells)) (UniProt Q60631); test: co-immunoprecipitation from ES cell lysate, immunoblot
[6] = biological target: Grb2 adapter protein (not stated (endogenous in murine ES cells)) (UniProt Q60631); test: immunoprecipitation of ES-TL1 lysate with anti-SHIP antibody, immunoblot for Grb2 (FIG. 6B)

Measured: binding

Grb2 adapter protein (from UniProt Q60631 1-217)
binds: [1] | [2]

B1: s-SHIP (stem-SHIP; SH2-lacking isoform of SH2-containing inositol 5'-phosphatase, approximately 104 kd) (enzyme, mouse, UniProt Q9ES52-5 1-928, looked up)
chain: T1 sequence (looked up)
notes: also called 8-SHIP protein isoform; 104-kd and 97-kd proteins
binds: [3] | [4] | [5] | [6]
